# Data as given in the supplement of paper PMC3334620.
# Whole data set: some 33,000 sequences, median “E-score (-0.5 to 0.5)” near -0.0014, cut for the highest 2% near 0.25. The list shows a part of the results.
# Molecular target: T1, Cad1 (UniProt P24813)
# T1 sequence: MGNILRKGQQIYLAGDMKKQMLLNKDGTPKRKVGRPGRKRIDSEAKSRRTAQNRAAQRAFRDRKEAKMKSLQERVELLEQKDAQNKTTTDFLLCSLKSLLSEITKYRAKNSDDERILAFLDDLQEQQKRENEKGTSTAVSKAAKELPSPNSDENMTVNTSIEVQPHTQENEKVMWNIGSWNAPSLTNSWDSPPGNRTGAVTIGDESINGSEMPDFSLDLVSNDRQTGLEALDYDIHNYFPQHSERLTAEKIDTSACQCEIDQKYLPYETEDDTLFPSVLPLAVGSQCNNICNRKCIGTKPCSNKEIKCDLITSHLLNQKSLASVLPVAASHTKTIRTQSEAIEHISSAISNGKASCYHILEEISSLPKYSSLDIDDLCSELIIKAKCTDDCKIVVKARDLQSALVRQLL
# Assay: PBM E-score (8-mer binding enrichment) (E-score (-0.5 to 0.5)); higher = stronger / more preferred TF binding
# Conditions: protein concentration: 100 nM; construct: GST-full length
# Outline: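 For each ungapped eight-base word taken together with its reverse complement, the Universal PBM Analysis Suite assigned an E-score. Binding data came from GST-tagged yeast transcription factors, applied at about 100-200 nM, on universal all-10-mer Agilent arrays made double-stranded by primer extension. Fluorescent anti-GST marked bound protein, and scans were normalised with masliner.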
row,Sequence,PBM E-score
1,AAGTTCCA,-0.0841
2,AGCCACGC,-0.148
3,CCAATGGC,0.0149
4,AGTCAGCC,0.0809
5,GATAAAAC,0.244
6,CCGAGTCA,-0.0617
7,TACCCGGA,0.12
8,AACACTGC,0.188
9,ACTACGGA,-0.0161
10,ATTCAAGC,0.164
11,TCTGGTCA,0.086
12,CAATCATA,0.148
13,TAAGGGCA,-0.0845
14,ATCGGTAG,0.0904
15,ACCAGGGC,-0.111
16,CACTAGGC,-0.0903
17,AGGAGTGG,-0.192
18,CACCAAAA,0.112
19,ATAAAGAA,0.0488
20,TAGTCATA,0.108
21,GGAAGACA,-0.0527
22,AATACCAT,0.197
23,AAAAGGTA,-0.162
24,ACTCCGAA,-0.046
25,CATGTAAA,-0.0641

# Single entries from the list:
# CCGAGTCA – PBM E-score: -0.0617
# ACTACGGA – PBM E-score: -0.0161
# TCTGGTCA – PBM E-score: 0.086

# (next part)

row,Sequence,PBM E-score
1,ACTATTAG,0.063
2,CTGATCTA,-0.103
3,AGCAGCGG,-0.0904
4,ACCGCTCT,-0.121
5,CTACCCCA,-0.101
6,GAGACCGC,-0.183
7,CGCTTGTC,0.0361
8,GTGCTGTA,-0.0115
9,AATCGTAA,0.105
10,CCAGCATC,-0.0679
11,CATGAATC,-0.0716
12,CCGGCTGA,0.118
13,CACTACCG,-0.225
14,GGGGCGTA,-0.266
15,CCAGCTCA,-0.0848
16,ACTTTGTC,0.11
17,ACCATTCA,0.0483
18,ACAGCCGC,-0.0506
19,CAACGCGG,0.0152
20,ATTGACCG,0.174
21,CCCAGATA,-0.0901
22,ATCTTATA,0.172
23,ACAAGCCG,-0.08
24,GAACACGA,0.143
25,GGTTCAAC,0.0424

row,Sequence,PBM E-score
1,AAGATAGT,-0.00871
2,ATAGAGTA,-0.0847
3,TCGACACA,0.164
4,GGTGCGAA,0.0553
5,CACTACTG,-0.0387
6,AATAACAA,0.143
7,GAAGGCCA,-0.207
8,CCAAGCCA,-0.0621
9,AAGAAAAG,0.0936
10,TCGTACAA,0.0306
11,ACGCTTTC,-0.0918
12,CTGGCATC,-0.203
13,AGGGCCTA,-0.141
14,AATGTGCT,0.13
15,TCCGGTCA,0.0639
16,AATCCGCA,0.116
17,CTATGGTC,-0.0374
18,CTGGCGTA,-0.213
19,AAGGTATC,-0.112
20,CTGCCCCA,-0.0143
21,ATCGGGTG,0.164
22,ATACACGC,0.0792
23,AACACAAT,0.152
24,ATTGTACG,0.00568
25,GTCCAGTA,-0.0673

row,Sequence,PBM E-score
1,GCTATGAA,0.0731
2,GAAACTAA,0.0886
3,AAGGGCCA,-0.0941
4,CGCGCAAA,0.227
5,ACTCCTAA,-0.126
6,ATAACATA,0.174
7,ACTGCGTA,-0.0751
8,CGCCCGAG,0.202
9,CTGGGTAA,0.0587
10,TCCACTAA,0.14
11,AGCGTCGA,0.2
12,CAAACAGC,0.0166
13,CGACGGTC,-0.223
14,GGTTGGAC,-0.182
15,AAGTGCTA,-0.257
16,AGCTTTCA,-0.0845
17,ACCCCGAT,0.0143
18,AATGGCCA,-0.019
19,GCTGCATA,0.197
20,GATCATGA,0.026
21,CTCATCAC,-0.0666
22,TGGCTACA,-0.092
23,CAAACAAA,0.105
24,AAGGGAGA,-0.319
25,CACCTTGC,0.054

# As a short view, some entries already given:
row,Sequence,PBM E-score
4,CGCGCAAA,0.227
5,ACTCCTAA,-0.126
6,ATAACATA,0.174

# The list goes on.

row,Sequence,PBM E-score
1,GGTTGAAA,-0.0335
2,AAGTGTAC,0.0601
3,GTGATTGA,0.0929
4,CGCAAACC,0.111
5,AGGAGTTC,-0.189
6,AACTTCAG,0.0295
7,ACCTGCTG,0.11
8,AAGGAAGA,-0.172
9,AAACCCGA,0.172
10,AGGCATGC,0.0717
11,CCCATGTA,-0.002
12,CGCGAGAC,0.04
13,TAGTGTAA,0.13
14,TATGCCCA,-0.124
15,AAATGCAC,-0.0236
16,ATCAAGTG,0.0499
17,GAGATAGA,-0.0537
18,TCCATGGA,0.0715
19,GGCCTCTA,-0.191
20,CCATATTA,0.148
21,CATTGGAA,0.0544
22,ACCATCAG,-0.00772
23,ACTTCACC,0.0478
24,AGCTTATA,0.0356
25,CCCTGAGC,0.0625

row,Sequence,PBM E-score
1,ACTATAGG,-0.161
2,CGGGGGAC,-0.376
3,CAAAGTAG,-0.00251
4,AATCTCCA,-0.079
5,ACGGTGGA,-0.168
6,GAGCCCAC,-0.1
7,CCTGAACA,0.00572
8,CCTAAGTC,-0.17
9,AGTGAAAT,-0.00397
10,AGGCAGAC,-0.202
11,GACTTCTA,-0.174
12,ACTCGACT,-0.153
13,GGGCGTAA,-0.12
14,CTGGCCTC,-0.171
15,CCTCTAAG,-0.191
16,ATTACAGA,0.152
17,AAGAAGTG,0.0756
18,ATACGTAC,-0.0354
19,CGTTCATC,0.194
20,CAAGGTAC,-0.0491
21,CATGTCTC,-0.00519
22,GGTGGCAA,-0.0998
23,AGAGTTGG,-0.0857
24,CAACGTAA,-0.119
25,ATAATTGC,0.0171

row,Sequence,PBM E-score
1,CGATAAGA,0.14
2,CGTCTGAG,0.0617
3,CTACTGAA,-0.0466
4,TACTTCAA,0.08
5,CGGGCAAG,0.0794
6,GTCGGGAA,-0.0156
7,CCCCCGTA,-0.359
8,CCTACCTC,-0.173
9,CTATATTA,0.241
10,ATGACCCA,0.053
11,CCCATAGC,-0.196
12,CCAAATTC,0.1
13,CCCTGGAG,-0.252
14,ATTGTAGG,0.139
15,AGGGGACA,-0.0975
16,AGGCTTCA,-0.235
17,ATGTTCCA,0.167
18,CCTAGAAG,-0.258
19,CTGAATTC,-0.118
20,ACTCTGGA,0.0695
21,GCTACCAA,-0.131
22,GCCGCGCC,-0.0221
23,AGATAGTG,0.155
24,ACTGGAGG,0.0173
25,GCCTCGAA,0.214

# In another format: results already given
row | Sequence | PBM E-score
6 | CCGAGTCA | -0.0617
12 | CAATCATA | 0.148
11 | CATGAATC | -0.0716
3 | AAGGGCCA | -0.0941
8 | CCTACCTC | -0.173
22 | GCCGCGCC | -0.0221

# (next part)

row,Sequence,PBM E-score
1,TAGGCCTA,0.0698
2,GCGTTGCA,0.0261
3,AAAGCCTG,-0.173
4,ATAGGGAC,-0.0945
5,CTAAACCA,-0.00096
6,ATATCATC,0.117
7,ACTGCGCT,0.0812
8,TCGTACCA,0.116
9,ACGGATTA,0.0793
10,AATGTGAA,0.194
11,CCAGTCTC,-0.286
12,AACCTCAC,-0.112
13,CCACCACG,-0.00489
14,GCCAAGCC,-0.167
15,AGAATTTA,0.0084
16,TCGTTTAA,0.182
17,AATGATGA,0.0927
18,CTGGGATA,-0.0818
19,CCAGGGGA,-0.337
20,CTTACCGA,0.0852
21,AAGCATGA,0.00455
22,TCGCGACA,0.131
23,TCGCTCAA,0.12
24,TCGCAAAA,0.0718
25,GGCGATAC,0.00689

row,Sequence,PBM E-score
1,GATACGCA,0.0684
2,GGCAAGAA,0.0127
3,GGGGCACA,-0.224
4,GAGCAGGA,-0.127
5,ATTCATGC,0.0369
6,GTTCGCTA,-0.00037
7,ACCCTGAA,0.00194
8,AGCAACGA,0.0529
9,GATCAACC,-0.141
10,TAAGAACA,0.275
11,ACACAGTG,0.0512
12,GTTCTTTA,0.111
13,AAGGGTGG,-0.126
14,ATTGAGGA,-0.00258
15,ACGTATGC,0.00905
16,TCTAATAA,0.0758
17,ATATATAG,0.175
18,AGCCACCA,-0.0565
19,CTCCTGTC,-0.0338
